# Assay results taken from article PMC12002642.
# These are yes or no findings as the source states them, for the method shown. Binding seen in cells or lysates may run through a third protein. Here binding means that the protein was enriched with, or labelled near, the bait; the list need not be complete.
# T1: Pab2-TurboID (S. japonicus) (UniProt B6K794)
# T1 sequence: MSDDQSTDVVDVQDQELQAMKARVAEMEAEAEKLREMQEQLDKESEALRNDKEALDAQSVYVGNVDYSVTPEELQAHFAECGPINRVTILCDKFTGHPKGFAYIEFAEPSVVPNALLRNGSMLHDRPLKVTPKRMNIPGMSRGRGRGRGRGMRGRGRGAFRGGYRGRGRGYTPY
# Target: T1, Pab2-TurboID (S. japonicus)
# Test: proximity labelling; TurboID: S. japonicus strain expressing Pab2-TurboID against parental strains; lysis in RIPA buffer, biotinylated proteins purified on streptavidin magnetic beads, LC-MS/MS
row,binding,Binder
1,binds,"Rmn1 (RBM26·27 ortholog), endogenous (protein, UniProt B6K5G4 1-589) MALLRHESAEEEVRQLCYSQLEDFLRQETIPFVDKVFDVLKERSYLEKEMKSPKGHLSTAATIPVSAPLAEKGPVAASNERPNAANAQANAPPFGGHQHPTLPAGFMPNPSGPPFPFPLPMLNPAAAAAAAAAAAAAAASGEFSPFQGSNNSSQASPMDIASPASPFPPPFQPRGSRRRCRDYETKGFCLRGDKCMFEHSSQPVRVSSPNHQNFAYDHRAPSRPIQHYSPRYIKGPSRDPSSTILQMRNVPPEYLDEQRIREFFEKFGPLEKVELHQTQSYAILHFKDHASAEAAWGSPEPIFNNRFIKVFWQATNTPSRGPPGQRRMTSSRVSHYTPYSRPQPRGEVVQEEDPVVTAQSPDFLKRVEEKQRAFEERRKKLEENKRKLEEINRKKQELALRQLKEQQVLMEKLKSADPASQSKVDILKTQLALLKAEADSLGIQVGSQNSPTPSTTTATSKPTVSYSHHPNASVGYSHAPARGRGGRFSFASMSLDNRPRRIQVNNVSPDKNELLLQHLLSVGEYESVTEPEPNTRMVNFRSRRAAEQFYDNVQTIDGLRDISLQWIPNGVAATQPSENQTDATMGNES"
2,binds,"Red5 (ZC3H3 ortholog), endogenous (protein, UniProt B6JVP1 1-380) MAGTNSEEQKLLEQIASLAGAINKYKYSQEQIHHQSAQKPDGANSTNWRKRKLSHWSTSRNQTLVNNPPPSPSIKGAAAKTQDDVSSMSEDATEASMFVARKDRHMQLIHKSIYEQDAQARQASMETARAKLNEKRKAVAEKKTQQKLTDPNNHLLTIQELPFIINDKDPKFIECMDTLAQLPKHIYHEGRAYVLMNRSMYKFVGTSPYSVYCRYYNMVGYCAKGGKCMYVHDPAHKYVCPRFLSGNCPNGEQCSLSHDRDEKRTPACRYFLKGKCTNPVCRYAHVHYNESVPVCPDFSEYGMCENGLHCKMKHILKCTEYALKGACHNAKCRLYHPPKELESTEKKEGAVSAEKMQGEQKQDSESSSTASGATPIFISL"

# The remaining lines, values behind:
row,Binder,binding
1,"Ppn1 (PPP1R10 ortholog, CPSF component), endogenous (protein, UniProt B6K4E4 1-783) MNGARDFSGLNDRNKPLQNDGNVDNRNVFAADYNNHRMPEMTLPLPSNYDSRIMGFYPAYNQNQAYMQPHAGFANQMHTEYGYFQPHVNNLLSNDASMHHTGQYLQPSVMEVDYRQQPPRQSYPYQPPTISNFQHASLPFYSSNTNAAEYANAARSLNPIQNPVTLPPLTHKEYPPSYYQPYVQNNMSAEETQNVLNRQPPQMHAGTPMLVETTPSYASSPNMQPAVLNQTVADVPSVAPSSSQKLPLKTPVKPKAPLSPAERLRHELNECLDPFNTSRAPRDCAAVLVNFMGSIETDEQKLIFLEITRDKGLDTIYNELVDGSRRIFLPKLRNWFVSAIRSKHDKLTHVILQVLTRLPLNPEKLAEVKFGKAILLVGKKSTNSIIRQYAENLSGIAEKSLLLEQRKDTKAAPVKPETTKTAASATSRPSHKSISQKPPVTTTKKVTSVSNTSFFKNLSSAAKQSAASGSKAPMASSASAKSSTPNTPLSAIMAGLNRGNQDSQTASSTSSSTKVGSDLKSLTEQITKGKEELPSFRKRSAKSDSTTGKPTKVSKTTSESTVKRKKKSVSWRPDNDLVQVRIIESLEDDKDLAKGVHHHYGSARDLDRHEARVAFGAKVEDDVEEEQTWYEPVVITFVIKDELHTRGFKTGAEKLNPTPESQWETERESSTKPSTTSEKVLSESFIRESSSPSTPAEIPLPAANEKETPQKDTSRSPSSPPRPVETRKDVNIPSQQPYSAVSAQHVSSILAALTNASAQAPSNRADDKNNASFLAQLMSTVNR",binds
2,"Dri1, endogenous (protein, UniProt B6K2B3 1-686) MALPEFVGDLVVLHFETNLDDHGLSIGRAPCEVREICWVILDGKTLEKQHCGSCAIRDESIKTGVYTSVESFREAVYTLDDVLQRLLSFENRNFTFVVMNARELRVLLPKQAKDHGIVLPSYLRYPRLFDLSNEYAKWQVRSGVVPPYTITLSHIFGKLDVDSLPPLADSASVLGISADDLAYVTKGLTQCWRLANAVTLLLMRASRDSQSLSPAGTPTKSGTSSSLAVLTRPIDCRADLRVFLAERSAVVHIAGLANDTTQAELENWFVNHGLRSVALWTLKTPDQYKSTGTGYVVFSSHKDATDALNLNGSCFGDRMLEITPSSPRTLERASDILTSFPSSKNRPRPGDWNCPMCGFSNFQRRTSCFRCSFPGSSNLSQQNLSGSLGHDQFLVGSYGNSPHSNGGVANAGYHVGSFHSASHTSLQPSSMPNGVSGSGVHSSNSRNSFGGNVPFRAGDWKCGSGGCGYHNFAKNVCCLRCGASRATASVVADSSGVAINPATPHGSFSNFSSSPFSGGSSQNNFLLSSNVYPYSQMSLNQLMKSGGGHSASSFGVQTSRFEEYSSRMKESPARAYNTSDQGDWLCECGFTNFRRRTNCLRCNAPHATSHPNMPASLPSNFGSFFGNGQHPFSAREDSNPNFMGGLSKHLAGISLKEEPAFQVSPSVFPSQKRASVAELSANGRLL",binds
